Test results: paper PMC2740829
These are yes or no findings as the source states them, for the method shown. In cells and extracts the contact can be indirect. A yes stands for co-enrichment or nearness to the bait. Other partners may have been found.

Chains of the proteins cited; added tags and fusions are not shown. Lines headed by an entry give the natural chain unless they say otherwise; changes in a name come on top. Residues count along the entry.
UniProt O43464: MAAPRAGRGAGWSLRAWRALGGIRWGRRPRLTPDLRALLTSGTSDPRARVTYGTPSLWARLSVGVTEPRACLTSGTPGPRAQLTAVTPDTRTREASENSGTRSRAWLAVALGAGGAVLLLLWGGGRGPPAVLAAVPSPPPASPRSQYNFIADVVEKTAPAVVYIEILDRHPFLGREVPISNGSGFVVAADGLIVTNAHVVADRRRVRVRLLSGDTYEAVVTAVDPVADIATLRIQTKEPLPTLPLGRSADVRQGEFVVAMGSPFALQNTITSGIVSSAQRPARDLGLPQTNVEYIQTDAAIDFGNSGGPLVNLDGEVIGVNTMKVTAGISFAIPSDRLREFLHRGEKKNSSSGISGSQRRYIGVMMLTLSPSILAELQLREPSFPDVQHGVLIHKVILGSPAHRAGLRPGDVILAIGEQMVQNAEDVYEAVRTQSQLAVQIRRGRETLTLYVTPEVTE
UniProt P11142: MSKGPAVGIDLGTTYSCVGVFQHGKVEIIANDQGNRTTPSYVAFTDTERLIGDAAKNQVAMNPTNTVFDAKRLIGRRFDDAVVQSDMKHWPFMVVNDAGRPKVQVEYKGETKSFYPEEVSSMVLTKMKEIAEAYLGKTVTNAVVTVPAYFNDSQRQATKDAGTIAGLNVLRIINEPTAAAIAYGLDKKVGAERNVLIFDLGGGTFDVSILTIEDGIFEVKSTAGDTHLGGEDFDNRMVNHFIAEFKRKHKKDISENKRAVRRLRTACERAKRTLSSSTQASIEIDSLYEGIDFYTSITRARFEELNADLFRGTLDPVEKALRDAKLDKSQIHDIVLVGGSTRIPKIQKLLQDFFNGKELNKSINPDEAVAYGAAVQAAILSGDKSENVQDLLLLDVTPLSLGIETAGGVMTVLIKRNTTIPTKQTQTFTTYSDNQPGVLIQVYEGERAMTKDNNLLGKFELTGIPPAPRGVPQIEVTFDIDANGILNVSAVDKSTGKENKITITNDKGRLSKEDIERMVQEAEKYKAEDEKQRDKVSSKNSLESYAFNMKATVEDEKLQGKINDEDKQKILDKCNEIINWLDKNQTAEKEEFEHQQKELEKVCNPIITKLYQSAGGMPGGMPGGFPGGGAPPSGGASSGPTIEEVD
UniProt P30101, residues 25-505: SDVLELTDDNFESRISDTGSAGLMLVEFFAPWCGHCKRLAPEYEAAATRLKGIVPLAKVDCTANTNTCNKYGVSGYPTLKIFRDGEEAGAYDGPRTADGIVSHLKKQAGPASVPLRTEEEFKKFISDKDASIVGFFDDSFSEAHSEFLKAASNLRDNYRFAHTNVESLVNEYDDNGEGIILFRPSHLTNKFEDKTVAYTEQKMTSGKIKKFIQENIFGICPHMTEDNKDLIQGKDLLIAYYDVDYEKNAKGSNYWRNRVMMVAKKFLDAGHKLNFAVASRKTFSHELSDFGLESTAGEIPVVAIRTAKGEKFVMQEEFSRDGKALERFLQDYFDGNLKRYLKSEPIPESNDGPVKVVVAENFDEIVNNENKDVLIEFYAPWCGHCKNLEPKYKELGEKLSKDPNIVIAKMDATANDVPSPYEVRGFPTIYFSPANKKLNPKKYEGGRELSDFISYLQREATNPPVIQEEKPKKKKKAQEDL

Target: FLAG-tagged OMI protease mutant S306C (inactive active site) (UniProt O43464)
Experiment: affinity purification with mass spectrometry; FLAG-tagged OMI mutants immunoprecipitated with anti-FLAG affinity gel beads from Triton X-100 solubilised mitochondria of transfected HEK293 cells; IEF/2D gel, silver stain; spots seen with S306C but not with S306C/G399S cored, in-gel trypsin digestion and tandem MS

binding	Substance
binds	HSPA8 Heat shock cognate 71 kDa protein (Heat shock 70 kDa protein 8), endogenous (from UniProt P11142 1-646)
binds	PDIA3 N-terminal of the glycoprotein chaperone ERp57 (chain A), endogenous (from UniProt P30101 25-505)
